According to PMC8446001:
These are yes or no findings as the source states them, for the method shown. In cells and extracts the contact can be indirect. Some results given as binding are weak or reduced against the parent protein; the word gives no strength. Tags and fused reporters may be left off the sequences shown.

T1: GlialCAM-Flag (glial cell adhesion molecule, wild type) (UniProt Q14CZ8)
T1 sequence: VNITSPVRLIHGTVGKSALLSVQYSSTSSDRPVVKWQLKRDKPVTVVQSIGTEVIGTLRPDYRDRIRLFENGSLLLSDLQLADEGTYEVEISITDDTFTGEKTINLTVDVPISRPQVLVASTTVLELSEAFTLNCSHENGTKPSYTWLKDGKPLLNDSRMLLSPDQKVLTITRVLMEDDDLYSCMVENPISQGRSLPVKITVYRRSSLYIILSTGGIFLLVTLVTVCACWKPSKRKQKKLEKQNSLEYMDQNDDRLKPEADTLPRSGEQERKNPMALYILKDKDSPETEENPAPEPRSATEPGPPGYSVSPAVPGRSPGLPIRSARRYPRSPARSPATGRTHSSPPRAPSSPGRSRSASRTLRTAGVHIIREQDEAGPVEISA


molecular target: T1, GlialCAM-Flag (glial cell adhesion molecule, wild type); assay: co-IP; cell surface co-IP (cs-IP) in HeLa cells: anti-GlialCAM Ab against an extracellular epitope bound to the live cell PM on ice for 45 min, unbound Ab washed off, lysis in milder buffer with 0.4% NP-40, magnetic beads (Dynabeads M-280); Western blot with anti-HA or anti-Flag

binding	Binder
binds	2HA-MLC1 wild type (megalencephalic leukoencephalopathy with subcortical cysts 1) (protein, UniProt Q15049 1-377) MTQEPFREELAYDRMPTLERGRQDPASYAPDAKPSDLQLSKRLPPCFSHKTWVFSVLMGSCLLVTSGFSLYLGNVFPAEMDYLRCAAGSCIPSAIVSFTVSRRNANVIPNFQILFVSTFAVTTTCLIWFGCKLVLNPSAININFNLILLLLLELLMAATVIIAARSSEEDCKKKKGSMSDSANILDEVPFPARVLKSYSVVEVIAGISAVLGGIIALNVDDSVSGPHLSVTFFWILVACFPSAIASHVAAECPSKCLVEVLIAISSLTSPLLFTASGYLSFSIMRIVEMFKDYPPAIKPSYDVLLLLLLLVLLLQAGLNTGTAIQCVRFKVSARLQGASWDTQNGPQERLAGEVARSPLKEFDKEKAWRAVVVQMAQ
binds	2HA-MLC1-C326R (protein, UniProt Q15049 1-377) MTQEPFREELAYDRMPTLERGRQDPASYAPDAKPSDLQLSKRLPPCFSHKTWVFSVLMGSCLLVTSGFSLYLGNVFPAEMDYLRCAAGSCIPSAIVSFTVSRRNANVIPNFQILFVSTFAVTTTCLIWFGCKLVLNPSAININFNLILLLLLELLMAATVIIAARSSEEDCKKKKGSMSDSANILDEVPFPARVLKSYSVVEVIAGISAVLGGIIALNVDDSVSGPHLSVTFFWILVACFPSAIASHVAAECPSKCLVEVLIAISSLTSPLLFTASGYLSFSIMRIVEMFKDYPPAIKPSYDVLLLLLLLVLLLQAGLNTGTAIQRVRFKVSARLQGASWDTQNGPQERLAGEVARSPLKEFDKEKAWRAVVVQMAQ
binds	2HA-MLC1-P92S (protein, UniProt Q15049 1-377) MTQEPFREELAYDRMPTLERGRQDPASYAPDAKPSDLQLSKRLPPCFSHKTWVFSVLMGSCLLVTSGFSLYLGNVFPAEMDYLRCAAGSCISSAIVSFTVSRRNANVIPNFQILFVSTFAVTTTCLIWFGCKLVLNPSAININFNLILLLLLELLMAATVIIAARSSEEDCKKKKGSMSDSANILDEVPFPARVLKSYSVVEVIAGISAVLGGIIALNVDDSVSGPHLSVTFFWILVACFPSAIASHVAAECPSKCLVEVLIAISSLTSPLLFTASGYLSFSIMRIVEMFKDYPPAIKPSYDVLLLLLLLVLLLQAGLNTGTAIQCVRFKVSARLQGASWDTQNGPQERLAGEVARSPLKEFDKEKAWRAVVVQMAQ
